Results taken from the supplement of paper PMC12819154, “High-throughput peptide-centric local stability assay extends protein–ligand identification to membrane proteins, tissues and bacteria” (Nature Structural & Molecular Biology, 2025).
The list shows a part of the results, in another mix than the full data. Most values lie at the level of the controls, where differences are scatter.
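Note: lysate desalted by size exclusion to strip endogenous ATP, peptide intensities built from DIA-NN precursor signals, and peptides missing any value discarded before comparison.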

Amino acid sequences for entries named in this document (tags omitted). A change or cut given only in a name is not applied to a line headed by its entry.
UniProt P0AEJ4: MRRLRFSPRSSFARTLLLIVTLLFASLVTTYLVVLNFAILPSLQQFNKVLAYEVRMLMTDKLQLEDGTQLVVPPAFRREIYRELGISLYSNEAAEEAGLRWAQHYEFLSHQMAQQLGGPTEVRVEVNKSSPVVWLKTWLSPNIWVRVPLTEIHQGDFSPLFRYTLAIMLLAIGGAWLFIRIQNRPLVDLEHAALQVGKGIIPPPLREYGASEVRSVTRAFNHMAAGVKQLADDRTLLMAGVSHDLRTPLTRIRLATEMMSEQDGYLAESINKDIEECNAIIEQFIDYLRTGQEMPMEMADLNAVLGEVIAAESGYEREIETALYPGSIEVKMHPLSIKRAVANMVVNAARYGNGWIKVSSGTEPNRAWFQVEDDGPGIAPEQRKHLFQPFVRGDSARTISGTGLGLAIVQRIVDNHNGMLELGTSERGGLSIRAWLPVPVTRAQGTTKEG

These compounds were tested against UniProt P0AEJ4 (assay: log2 fold change of tryptic peptide abundance, ligand vs vehicle (limited proteolysis) (log2 ratio); higher = more trypsin-susceptible (destabilized)). Conditions: peptide sequence: EYGASEVR; peptide start residue: 207; ligand concentration: 5 mM; sample: E. coli desalted lysate; replicate design: treated before aliquoting.
Method: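 HT-PELSA: desalted E. coli K-12 BW25113 lysate (with 12 mM MgCl2) incubated with 5 mM ATP (pH 7) or water for 30 min at 25 C, then a 4 min trypsin pulse at 22 C. Peptides were quantified by DIA-MS (4 replicates). Value is the peptide log2 fold change (treated/control); negative = stabilized. Scale: negative = ligand-stabilized region.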
For `Nc1ncnc2c1ncn2[C@@H]1O[C@H](COP(=O)(O)OP(=O)(O)OP(=O)(O)O)[C@@H](O)[C@H]1O` [adenosine 5'-triphosphate], the log2 fold change was -0.435.
